# Source: patent US12653800B2, “Small molecule inhibitors of TLR2 signaling” (University of Maryland, Baltimore, priority 2015, dated 2026)
# Some of these results come from one statement about several compounds together.
# Target: TLR2/1 (Homo sapiens, UniProt O60603)
# Experiment: P3C-induced IL-8 mRNA (qRT-PCR) in HEK-TLR2 stable transfectants
# Assay type: cell-based
# Parameters: expressed in transfected cells
# Details: 100 μM compound, 1 hr pretreatment, P3C 100 ng/mL 1 hr, HEK-TLR2 cells
smiles,measurement,value
CCOC(=O)c1ccc(NC(=O)CSc2nc3cccnc3[nH]2)cc1 [Compound C14],decrease of P3C-induced IL-8 mRNA,≥ 50%
